Data: PMC7887808
No constants are given. Whether binding was seen depends on the method and setting. Binding seen in cells or lysates may run through a third protein. Some binding calls cover weakened binding; strength is not graded here.

Chains of the proteins cited; added tags and fusions are not shown.
UniProt P53396: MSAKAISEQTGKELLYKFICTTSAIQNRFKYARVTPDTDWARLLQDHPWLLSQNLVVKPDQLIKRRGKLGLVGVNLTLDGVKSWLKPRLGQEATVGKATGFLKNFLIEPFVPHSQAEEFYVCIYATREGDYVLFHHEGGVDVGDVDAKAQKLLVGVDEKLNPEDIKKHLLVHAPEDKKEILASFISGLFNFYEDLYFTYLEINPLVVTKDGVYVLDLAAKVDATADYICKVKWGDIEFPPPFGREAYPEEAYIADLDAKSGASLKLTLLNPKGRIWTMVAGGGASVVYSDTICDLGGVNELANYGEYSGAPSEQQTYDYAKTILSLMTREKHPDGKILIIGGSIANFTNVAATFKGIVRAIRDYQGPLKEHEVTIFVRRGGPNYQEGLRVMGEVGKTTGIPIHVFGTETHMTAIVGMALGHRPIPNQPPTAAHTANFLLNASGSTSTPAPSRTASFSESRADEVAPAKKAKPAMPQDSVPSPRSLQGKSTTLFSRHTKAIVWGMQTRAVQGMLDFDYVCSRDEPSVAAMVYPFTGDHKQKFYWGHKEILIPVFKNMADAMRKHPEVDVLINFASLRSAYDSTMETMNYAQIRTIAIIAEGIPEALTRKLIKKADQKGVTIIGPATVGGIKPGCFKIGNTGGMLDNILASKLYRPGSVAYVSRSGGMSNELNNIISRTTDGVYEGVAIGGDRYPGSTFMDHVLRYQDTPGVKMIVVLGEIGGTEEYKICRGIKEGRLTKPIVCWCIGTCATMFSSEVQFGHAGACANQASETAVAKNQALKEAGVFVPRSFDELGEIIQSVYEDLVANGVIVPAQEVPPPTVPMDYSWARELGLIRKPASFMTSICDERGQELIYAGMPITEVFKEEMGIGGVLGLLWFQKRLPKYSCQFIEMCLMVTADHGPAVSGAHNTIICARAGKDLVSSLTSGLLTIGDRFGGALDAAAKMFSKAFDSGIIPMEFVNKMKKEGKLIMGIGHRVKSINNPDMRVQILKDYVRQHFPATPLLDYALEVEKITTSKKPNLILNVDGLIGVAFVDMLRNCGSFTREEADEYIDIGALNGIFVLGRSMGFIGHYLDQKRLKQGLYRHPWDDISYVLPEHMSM

Molecular target: T1, ER resident protein 44 (human (endogenous in CNE2)) (UniProt Q9BS26)
T1 sequence: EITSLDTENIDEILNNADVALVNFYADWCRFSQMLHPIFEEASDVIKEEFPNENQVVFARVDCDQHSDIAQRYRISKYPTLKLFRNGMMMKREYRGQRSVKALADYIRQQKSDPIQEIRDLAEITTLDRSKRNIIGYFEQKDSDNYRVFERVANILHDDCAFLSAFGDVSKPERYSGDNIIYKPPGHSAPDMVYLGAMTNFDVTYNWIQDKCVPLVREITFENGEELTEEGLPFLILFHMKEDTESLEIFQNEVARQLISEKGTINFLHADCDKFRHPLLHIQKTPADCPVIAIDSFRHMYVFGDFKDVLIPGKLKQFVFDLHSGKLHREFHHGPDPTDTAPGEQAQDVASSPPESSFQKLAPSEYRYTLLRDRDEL
Experiment: co-IP; endogenous proteins in CNE2 cells; Pierce Co-Immunoprecipitation Kit, antibody-coupled resin, 4 °C, overnight; western blot with anti-ERp44 and anti-ACLY

“ATP citrate lyase (from UniProt P53396 1-1101) (enzyme)” was tested, and the binding was “binds”.
